Results are given in words; binding and its absence hold for the method and conditions named. Binding seen in cells or lysates may run through a third protein. Some results given as binding are weak or reduced against the parent protein; the word gives no strength.
Target: RIC8 guanine nucleotide exchange factor A (RIC8A) (UniProt Q9NPQ8)
Test: co-IP; immunoprecipitation (IP) assay (figure 4A); also in circPDE4B knockdown and overexpression cells (figure 4D: binding decreased with knockdown, the opposite with overexpression)

Protein sequences, listed by entry. Tags and fused reporters are not part of them.
UniProt Q9NPQ8: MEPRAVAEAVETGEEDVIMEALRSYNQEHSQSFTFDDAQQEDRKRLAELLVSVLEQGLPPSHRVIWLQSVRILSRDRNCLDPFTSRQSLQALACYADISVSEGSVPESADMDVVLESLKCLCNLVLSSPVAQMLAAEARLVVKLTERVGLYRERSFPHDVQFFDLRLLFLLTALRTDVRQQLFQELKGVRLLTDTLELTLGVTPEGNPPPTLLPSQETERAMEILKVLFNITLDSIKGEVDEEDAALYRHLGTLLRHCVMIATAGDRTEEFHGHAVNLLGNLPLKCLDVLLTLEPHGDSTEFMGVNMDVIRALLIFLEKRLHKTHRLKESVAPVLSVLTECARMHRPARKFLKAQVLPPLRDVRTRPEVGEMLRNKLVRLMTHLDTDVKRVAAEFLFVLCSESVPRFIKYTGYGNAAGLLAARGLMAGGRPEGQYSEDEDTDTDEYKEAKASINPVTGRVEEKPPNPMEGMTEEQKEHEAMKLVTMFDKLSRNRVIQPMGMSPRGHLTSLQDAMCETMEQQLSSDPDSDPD

B1: midline 1 (MID1) (protein, UniProt O15344 1-667)
chain: METLESELTCPICLELFEDPLLLPCAHSLCFNCAHRILVSHCATNESVESITAFQCPTCRHVITLSQRGLDGLKRNVTLQNIIDRFQKASVSGPNSPSETRRERAFDANTMTSAEKVLCQFCDQDPAQDAVKTCVTCEVSYCDECLKATHPNKKPFTGHRLIEPIPDSHIRGLMCLEHEDEKVNMYCVTDDQLICALCKLVGRHRDHQVAALSERYDKLKQNLESNLTNLIKRNTELETLLAKLIQTCQHVEVNASRQEAKLTEECDLLIEIIQQRRQIIGTKIKEGKVMRLRKLAQQIANCKQCIERSASLISQAEHSLKENDHARFLQTAKNITERVSMATASSQVLIPEINLNDTFDTFALDFSREKKLLECLDYLTAPNPPTIREELCTASYDTITVHWTSDDEFSVVSYELQYTIFTGQANVVSLCNSADSWMIVPNIKQNHYTVHGLQSGTKYIFMVKAINQAGSRSSEPGKLKTNSQPFKLDPKSAHRKLKVSHDNLTVERDESSSKKSHTPERFTSQGSYGVAGNVFIDSGRHYWEVVISGSTWYAIGLAYKSAPKHEWIGKNSASWALCRCNNNWVVRHNSKEIPIEPAPHLRRVGILLDYDNGSIAFYDALNSIHLYTFDVAFAQPVCPTFTVWNKCLTIITGLPIPDHLDCTEQLP
- binding: binds

From paper PMC8372377
